Cell number change and AC50 data for 59 molecules are collected here from PubChem BioAssay AID2685 (National Center for Advancing Translational Sciences (NCATS), 2010).

The test is described as follows: qHTS Assay for Lipid Storage Modulators in Drosophila S3 Cells.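 As to Cell number change: cells counted by Cell Tracker Red CMTPX staining in the red channel.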 The following applies: BODIPY lipid droplet fluorescence, 18-24 h; for cell number change: measured here: cell count max response, cells fed with added oleic acid. The procedure, abridged: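 Laser-scanning cytometry quantifies lipid droplet accumulation (500–530 nm total intensity; droplet/cell object ratio) in oleic acid-fed (400 uM added) Drosophila S3 cells treated with a concentration series. 20 uM Triacsin C defined 100% inhibition.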
A general note: Quantitative high-throughput screening tests each substance at several concentrations.

[1] abbreviates: measured here: cell number channel AC50, cells fed with added oleic acid.
Setting [2] is: measured here: lipid fluorescence (Fed channel) AC50, cells fed with added oleic acid.

Some of the results follow. These are further read-outs of the screen, such as a control signal, another cell line or another target. No call is given for them. The list favours compounds with an active or inconclusive main result. The note in brackets gives the kind of curve behind each potency; many fits are weak.

Usually AC50 stands for the midpoint of the concentration-response curve, whichever way the signal moves. A high value points to weaker potency.

Turning to `CC1CN(C(=O)Cn2c(C(F)(F)F)nc3ccccc32)CC(C)O1` (stereo not drawn), the cell number change was 10.7%.

Take `Cc1cc(OCC(=O)Nc2ccncc2)c(C)cc1Br`: the cell number change was -30.5%. The AC50 under setting [1] is 0.0058 µM [falling, full curve, poor fit]. Also, the AC50 under setting [2] was 0.164 µM [falling, full curve].

On to `COc1ccc(OCC(=O)N2CCC3(CC2)CC(=O)c2ccccc2O3)cc1`, for which the cell number change was -12.9%. Further, the AC50 under setting [2] is 8.2 µM [falling, partial curve].

For `O=C(NCc1ccccn1)Nc1cccc(F)c1`, the cell number change is -20%. Besides, the half-maximal activity concentration (AC50) under setting [2] was 0.794 µM [falling, full curve, poor fit].

Take `COc1ccc(CNC(=O)/C=C/c2ccc(OCCCF)cc2)cc1`: the cell number change is 29.9%.

Regarding `Cc1c(C(=O)c2ccc(Cl)cc2Cl)cnc2cc3c(cc12)OCO3`, the cell number change was -32.6%. Further, the AC50 under setting [1] is 32.6 µM [falling, single point]. Further, under setting [2], the AC50 is 29.1 µM [falling, single point].

In the case of `COc1ccc(C(=O)COC(=O)Cn2nnc3ccccc32)cc1Br`, the cell number change is -67.6%. In addition, the AC50 under setting [1] was 32.6 µM [falling, partial curve, poor fit]. Besides, the concentration at half-maximal activity (AC50) under setting [2] is 20.6 µM [falling, partial curve].

On to `O=C1COc2ccc(C(=O)COC(=O)CNC(=O)c3ccccc3)cc2N1`, for which the cell number change turned out to be 57.4%. For the same molecule, the half-maximal activity concentration (AC50) under setting [1] was 29.1 µM [rising, single point]. Further, the AC50 under setting [2] is 4.11 µM [falling, single point].

For the molecule `CN(c1ccc(OCC(=O)OCC(=O)Nc2ccc(Br)cc2)cc1)S(=O)(=O)c1cccs1`, the cell number change was found to be 4.07%. In addition, the AC50 under setting [2] is 29.1 µM [falling, single point].

On to `O=C(NCCN1CCOCC1)c1cc(-c2cccc(O)c2)on1`, for which the half-maximal activity concentration (AC50) under setting [2] is 0.58 µM [rising, partial curve].

For `COc1ccc(S(=O)CC(=O)Nc2ccc(Cl)cc2Cl)cc1` (stereo not drawn), the cell number change was -1.85%. For the same molecule, under setting [2], the AC50 was 6.51 µM [falling, single point].

On to `CCOc1ccccc1NC(=O)CCS(=O)(=O)c1ccc2c(c1)CCN2C(C)=O`, for which the cell number change is 17.9%.

With `O=[N+]([O-])c1ccc(N2CCCCCC2)c([N+](=O)[O-])c1`, the cell number change was 40.1%.

For the molecule `CCSc1nnc(NC(=O)CSc2nc(CC)nc3c2c(=O)n(C)c(=O)n3C)s1`, the AC50 under setting [1] was 2.59 µM [rising, partial curve].

With `CC1(C)Cc2cccc(OCC(=O)NCc3cccs3)c2O1`, the cell number change was -11.4%. In addition, the AC50 under setting [2] is 29.1 µM [falling, single point].

For `O=C(Cn1c(=O)oc2cc(S(=O)(=O)N3CCCC3)ccc21)Nc1ccccc1Br`, the cell number change was -42.4%. For the same molecule, the AC50 under setting [2] was 10.3 µM [falling, partial curve].

For the molecule `COc1ccc(-c2nn(-c3ccccc3)cc2/C=N/n2cnnc2)cc1OC`, under setting [1], the AC50 was 2.31 µM [rising, partial curve].

Consider `COc1ccc(C(=O)NCc2nnc(SCC(=O)Nc3cc(C)cc(C)c3)o2)cc1OC`, for which the cell number change amounted to 62.9%. Besides, the AC50 under setting [1] is 29.1 µM [rising, partial curve, poor fit]. The AC50 under setting [2] was 20.6 µM [rising, single point].

In the case of `COc1ccccc1NC(=O)C(C)OC(=O)Cc1ccsc1` (stereo not drawn), the cell number change was -25%. Besides, under setting [2], the AC50 was 6.51 µM [falling, single point].

For the molecule `O=C(Cc1ccccc1[N+](=O)[O-])Nc1cccc(S(=O)(=O)NC2=NCCCCC2)c1`, the cell number change was -46.2%. In addition, the AC50 under setting [1] was 29.1 µM [falling, single point].

As for `C/C(=N\Nc1ccc([N+](=O)[O-])cc1)c1ccc(-n2nncc2C)cc1`, the cell number change turned out to be 40%. Besides, under setting [1], the AC50 is 29.1 µM [rising, single point]. Moreover, the AC50 under setting [2] is 1.46 µM [rising, partial curve].

Turning to `COc1ccc(Nc2nc(-c3ccccc3)nc3ccccc23)cc1S(=O)(=O)N1CCOCC1`, under setting [2], the AC50 is 29.1 µM [falling, single point].

Take `c1ccc(-c2noc(-c3cccc4ccccc34)n2)nc1`: the cell number change was 1.96%.

`Cc1ccccc1N=Nc1c(N)n[nH]c1N`: the cell number change came to 27.7%. In addition, the AC50 under setting [2] was 0.231 µM [rising, full curve, poor fit].

Regarding `CCOc1ccccc1NC(=O)Nc1ccc(Br)cc1C`, the cell number change was 2.4%.

On to `COc1ccc(NS(=O)(=O)c2ccc(N3CCOCC3)c(N)c2)cc1`, for which the cell number change is -36.1%. For the same molecule, under setting [1], the AC50 is 9.2 µM [falling, partial curve]. Under setting [2], the AC50 is 1.84 µM [falling, full curve].

Turning to `O=C(Nc1nc2ccccc2n1CCN1CCCCC1)c1ccc(Cl)cc1`, under setting [2], the AC50 is 0.146 µM [rising, full curve, poor fit].

On to `Cc1cccn2c(=O)c3cc(C(=O)NC4CCCC4)c(=N)n(Cc4ccc(F)cc4)c3nc12`, for which the cell number change came to 20.2%. For the same molecule, the AC50 under setting [2] is 9.2 µM [falling, partial curve].

As for `CCCc1c(O)nc(SC2CC(=O)N(c3cc(OC)ccc3OC)C2=O)[nH]c1=O` (stereo not drawn), the cell number change was 3.24%. Besides, under setting [1], the AC50 is 0.651 µM [falling, full curve]. The AC50 under setting [2] is 0.0164 µM [falling, full curve].

With `CC(C)(C)OC(=O)NCCCC[C@H](NC(=O)c1nc[nH]c1C(=O)NCC(=O)OCc1ccccc1)C(=O)OC(C)(C)C`, the cell number change is -5.09%. Further, the AC50 under setting [2] is 18.4 µM [falling, single point].

For the molecule `Cc1onc(-c2ccccc2Cl)c1C(=O)N/N=C(\N)COc1ccc(Cl)cc1`, the half-maximal activity concentration (AC50) under setting [2] was 1.16 µM [rising, full curve, poor fit].

For the molecule `Cc1ccc(OC(C)C(=O)Nc2ccncc2)cc1C` (stereo not drawn), the cell number change was -12.6%.

In the case of `Cc1ccc(NC(=O)Cn2nc(-c3ccco3)ccc2=O)cc1Cl`, the cell number change was found to be 23.1%. Moreover, under setting [2], the AC50 was 3.66 µM [falling, full curve, poor fit].

Take `O=C(CSc1nnc(CNC(=O)c2cccs2)o1)Nc1ccccc1`: the cell number change is -29.4%.

As for `CSc1ccc(S(=O)(=O)NCC(=O)OCC(=O)NC2(C#N)CCCCC2)cc1[N+](=O)[O-]`, the cell number change was -11%.

As to `O=[N+]([O-])c1ccccc1CNc1ccc(F)c(Cl)c1`, the cell number change is -3.65%. Moreover, the AC50 under setting [2] was 0.461 µM [falling, full curve, poor fit].

On to `CCCn1c(C2CCCN2c2nc(-c3ccc(C)cc3)cs2)nc2cc(Cl)c(N3CCCCC3)cc21` (stereo not drawn), for which the cell number change turned out to be 29.1%. The AC50 under setting [2] is 18.4 µM [rising, partial curve].

As to `COC(=O)N/N=C/c1cn(Cc2ccc(F)cc2)c2ccccc12`, the cell number change is 4.59%. Also, the AC50 under setting [2] was 20.6 µM [rising, single point].

On to `CCOC(=O)c1c(NC(=O)COC(=O)c2nccnc2N)sc2c1CCC2`, for which the cell number change was -62.6%. The AC50 under setting [1] was 23.1 µM [falling, partial curve]. Further, the AC50 under setting [2] is 18.4 µM [falling, single point].

`CC(C)OCc1c(C(=O)OC/C(O)=C(\C#N)c2nc3ccccc3[nH]2)oc2ccccc12`: the cell number change was determined as 7.96%.

With `CCCSc1nc2c(c(=O)n1CC)SC(C)C2` (stereo not drawn), the cell number change is -4.7%.

For `Cc1[nH]c2ccc(OC(=O)N3CCOCC3)cc2c1C(=O)OC(C)C`, the cell number change came to 1.86%. Moreover, the AC50 under setting [2] is 2.31 µM [rising, partial curve, poor fit].

For the molecule `CCOCCCNS(=O)(=O)c1ccc(NC(=O)c2ccc([N+](=O)[O-])cc2Cl)cc1`, the cell number change amounted to 4.71%. In addition, the concentration at half-maximal activity (AC50) under setting [2] was 0.651 µM [falling, single point].

On to `CCSC1=N/C(=C\C=C2/Oc3ccccc3N2CC)C(=O)S1`, for which the cell number change is -17.7%. Under setting [2], the AC50 is 29.1 µM [falling, single point].

Consider `Cc1nnc(SCC(=O)N(C)C2CCS(=O)(=O)C2)n1Cc1ccccc1` (stereo not drawn), for which the cell number change stood at 8.77%.

In the case of `CC(=O)Nc1ccc(NC(=O)C(C)OC(=O)CSCc2cccc(Cl)c2)cc1` (stereo not drawn), the AC50 under setting [2] was 4.11 µM [rising, partial curve].

On to `C=C(C)CC(c1ccccc1)N(C(C)=O)c1ccco1` (stereo not drawn), for which the cell number change was determined as 2.81%. In addition, under setting [2], the AC50 is 0.411 µM [rising, partial curve].

In the case of `CCOc1ccc(/C=N/N2C(=O)C(CC(=O)Nc3ccc(F)cc3F)SC2=NC)cc1OC` (stereo not drawn), the cell number change is -2.38%. The AC50 under setting [2] was 1.64 µM [rising, partial curve, poor fit].

As for `O=C(Nc1cccc(C(=O)N2CCN(c3ccc(F)cc3)CC2)c1)c1ccccc1`, the cell number change worked out at 14.5%. The AC50 under setting [2] is 1.46 µM [falling, partial curve].

In the case of `COc1ccc(C)cc1NC(=O)CSc1nnc(-c2cc3cccc(OC)c3o2)n1N`, the cell number change is -12.4%. Under setting [2], the AC50 is 29.1 µM [falling, single point].

As for `CN1C(C(=O)Nc2cccc(O)c2)=CC(c2cccs2)=NS1(=O)=O`, the cell number change is 11%. Further, the AC50 under setting [1] is 0.0146 µM [rising, full curve, poor fit]. The AC50 under setting [2] is 6.51 µM [rising, single point].

Take `Cc1ccc(/C=C2\SC(=S)N(CCC(=O)Nc3ccc(O)cc3)C2=O)cc1`: the cell number change is -32%. In addition, the concentration at half-maximal activity (AC50) under setting [1] is 29.1 µM [falling, single point]. Besides, under setting [2], the half-maximal activity concentration (AC50) is 29.1 µM [falling, single point].

Turning to `Cc1cccc(NC(=O)c2ccc(F)c(S(=O)(=O)NCc3ccco3)c2)c1`, the cell number change was -28%. For the same molecule, the AC50 under setting [1] is 0.00461 µM [falling, full curve, poor fit]. The AC50 under setting [2] was 29.1 µM [falling, single point].

With `O=C(CSc1cccc2cccc(Cl)c12)NCc1cccs1`, the cell number change was -20.9%. Moreover, the AC50 under setting [1] is 0.291 µM [falling, partial curve, poor fit].

As for `CCCCCc1cc(=O)oc2c(C(CCN(CC)CC)c3ccc(OC)cc3)c(OC)cc(OC)c12` (stereo not drawn), the cell number change was -48.4%. In addition, the AC50 under setting [1] was 29.1 µM [falling, single point]. Under setting [2], the AC50 is 23.1 µM [falling, single point].

With `Cc1c(C(=O)N(Cc2ccc(Cl)cc2)C2CCS(=O)(=O)C2)oc2ccccc12` (stereo not drawn), the AC50 under setting [2] was 18.4 µM [falling, partial curve].

For `CCOc1ccc(NC(=O)CN(C)CC(=O)Nc2ccc(Br)cc2F)cc1OCC`, the cell number change is 25.8%. Under setting [1], the AC50 was 4.11 µM [rising, full curve, poor fit]. The AC50 under setting [2] is 0.651 µM [rising, full curve, poor fit].

As for `CCOCc1nnc(NC(=O)c2cc(OC)c(OC)c(OC)c2)s1`, the cell number change was -0.356%. The AC50 under setting [2] is 0.058 µM [falling, full curve, poor fit].

Turning to `Cc1cc(Cl)ccc1C(=O)C1CCCN(C(=O)CN2CCOC2=O)C1` (stereo not drawn), the cell number change came out at 5.1%. Besides, the AC50 under setting [1] was 0.164 µM [rising, partial curve]. Besides, the AC50 under setting [2] is 0.0058 µM [rising, full curve, poor fit].
